Some of the results follow.

By UniProt entry, the sequences of proteins in these tests, tags left out.
UniProt Q0JBA9, entry or part of it: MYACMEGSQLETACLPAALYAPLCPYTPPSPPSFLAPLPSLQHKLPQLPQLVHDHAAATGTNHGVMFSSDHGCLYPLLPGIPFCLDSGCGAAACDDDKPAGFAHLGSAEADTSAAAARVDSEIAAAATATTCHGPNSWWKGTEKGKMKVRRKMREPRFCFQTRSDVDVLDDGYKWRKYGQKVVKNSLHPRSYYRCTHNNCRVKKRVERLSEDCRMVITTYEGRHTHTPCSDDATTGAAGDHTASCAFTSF

The target in the test is OsWRKY34 (Oryza sativa, UniProt Q0JBA9 1-250). In words: protein-binding microarray (RPBM); PBS, 2% BSA, 51.3 ng/ul salmon testes DNA, 50 uM zinc acetate, 200 nM TF, 25 C, 1 h; high values mean tight binding. The settings on record: protein: recombinant; tags: N-terminal polyhistidine and DsRed monomer fusion (pET32a); label: CyDye5-dUTP incorporated in the synthesized complementary strand; 3' TTTTT single-stranded linker to array surface; dsDNA, one strand shown. Put shortly:
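Ni–NTA purification followed expression in E. coli BL21-CodonPlus of transcription factors fused N-terminally to a polyhistidine tag and DsRed. At 200 nM in PBS with 2% BSA, salmon testes DNA and 50 µM zinc acetate, the protein was incubated for 1 h at 25 °C with a custom Agilent array that had been primer-extended with Cy5-dUTP and blocked with 2% BSA. After washing, the array was read on an Axon 4000B scanner. The binding signal is per-feature fluorescence intensity in arbitrary units.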
Turning to “GCGAGCGACCGTCGCTCGTCCTGCTGCTTCCGCCACATCGCGGAGTCACCTAGTGCAG”, the binding signal is 9160 fluorescence intensity (a.u.).

As to “CCAGGCCGAACCCTAGCGCCGCCGCCACATCGATCTACCTCGGAGTCACCTAGTGCAG”, the binding signal was 9280 fluorescence intensity (a.u.).

For the sequence “GGTCTGTGGCCAGTCATCTTTTATTGGTTATCCTAACACTCGGAGTCACCTAGTGCAG”, the binding signal was 9240 fluorescence intensity (a.u.).

As for “ATTGCATCTCTTCTTCAAAAGTATACAACAAATATGTTTTCGGAGTCACCTAGTGCAG”, the binding signal was 9070 fluorescence intensity (a.u.).

For “AGCTACCTGTTTTCACGAGTTTAGAAGCTTTTTTTATTCTCGGAGTCACCTAGTGCAG”, the binding signal was 8330 fluorescence intensity (a.u.).

For “GTTTGCATCGAGGACACTGGACTTTGATCCCATAGCTTCACGGAGTCACCTAGTGCAG”, the binding signal was 8950 fluorescence intensity (a.u.).

For the sequence “ACAACGAATTTAGACATGCTTCCTATCCAGATTCATTGTACGGAGTCACCTAGTGCAG”, the binding signal was 10700 fluorescence intensity (a.u.).

Take “ACACTTGCATTCTTATGAAAATCCTACGTTTTTTCTATTTCGGAGTCACCTAGTGCAG”: the binding signal was 8960 fluorescence intensity (a.u.).

For the sequence “TTGGTTGGGCACTTGCGGTTGATCTGGTCCGTTGCTTCAGCGGAGTCACCTAGTGCAG”, the binding signal was 11100 fluorescence intensity (a.u.).

With “GATTTGAGCTCCAGACGAGCCGAGCCCGAGCGTCTCCCTACGGAGTCACCTAGTGCAG”, the binding signal was 8750 fluorescence intensity (a.u.).

Consider “CTCATCATCCCGTCCAAAATCAGCTGCCCGCGCCGACGACCGGAGTCACCTAGTGCAG”, for which the binding signal is 8700 fluorescence intensity (a.u.).

In the case of “GTTAATTGAGGGGCGGTAATATATAATTAGGGGAGAGGAGCGGAGTCACCTAGTGCAG”, the binding signal is 9740 fluorescence intensity (a.u.).

As to “GGTGTGGTATCTTTCCCAAGATTTTCTTATTCTTCTTCTTCGGAGTCACCTAGTGCAG”, the binding signal was 9630 fluorescence intensity (a.u.).

Turning to “GGAGTTCCATTGGATTACCTGGGGACTGGGGTAGTAGATTCGGAGTCACCTAGTGCAG”, the binding signal is 9760 fluorescence intensity (a.u.).

Take “CCTCTCTGATTCGTCACCGCCACCGCCGCGTCGTCCCGCGCGGAGTCACCTAGTGCAG”: the binding signal was 9730 fluorescence intensity (a.u.).

“TTAATTTGCACGGTTTCTGTCCAGTCTCATCTTTAGGGCCCGGAGTCACCTAGTGCAG”: the binding signal was 8420 fluorescence intensity (a.u.).

As to “CCGCGTCCGTACTCTCTAGCCTGCGGGTAAGCAACGAACTCGGAGTCACCTAGTGCAG”, the binding signal was 8310 fluorescence intensity (a.u.).

Turning to “CTATGATTTGTGAGCTTCCCTCTTCTTTTTGTTGCGATTACGGAGTCACCTAGTGCAG”, the binding signal was 8560 fluorescence intensity (a.u.).

As to “GTACTTTCTTGACTAATCATCTATTGTGTGCACACTTTTCCGGAGTCACCTAGTGCAG”, the binding signal was 11200 fluorescence intensity (a.u.).

For “TATTTGTGCTGAGATGTTGCTAGCTATTGATATTAACGTACGGAGTCACCTAGTGCAG”, the binding signal was 10300 fluorescence intensity (a.u.).

“ACTCATTTCGTCGCCGTGTCCCGCGTGGCTCGCCGCCATGCGGAGTCACCTAGTGCAG”: the binding signal was 9480 fluorescence intensity (a.u.).

As to “ATTTTGGTTTAAGTTTTTGTTTCTTATCAGCTCTGAACATCGGAGTCACCTAGTGCAG”, the binding signal is 8240 fluorescence intensity (a.u.).

Regarding “GGTGTATTGGAGTTGTCTTGTGGATTTTTCTTCTGATGATCGGAGTCACCTAGTGCAG”, the binding signal was 11500 fluorescence intensity (a.u.).

“AGCTCCGATTTGCACAATTGCCTCATCTTGTCTTTCTCGACGGAGTCACCTAGTGCAG”: the binding signal was 8020 fluorescence intensity (a.u.).

Turning to “CATAACATTTGCTTCTTTCTTTGATACCTTGATTTCAGTTCGGAGTCACCTAGTGCAG”, the binding signal was 11200 fluorescence intensity (a.u.).

With “TCATGTTCTTTTTATAGGGGTGGAAAATACGAGCAGATAACGGAGTCACCTAGTGCAG”, the binding signal was 13100 fluorescence intensity (a.u.).

As to “ATATGGCCCATTGACCTAGTCCAACCGCTAAGTCATCATTCGGAGTCACCTAGTGCAG”, the binding signal is 8230 fluorescence intensity (a.u.).

For “AAATGGACCATTACCTCGCTAGCTCCCTTGAGGCTTCTTCCGGAGTCACCTAGTGCAG”, the binding signal is 8730 fluorescence intensity (a.u.).

Consider “TTTGCCATCCCTTCCTTTCAGTAGACCATCACCACCCCTACGGAGTCACCTAGTGCAG”, for which the binding signal was 8340 fluorescence intensity (a.u.).

Consider “GATGTGACTTTATACTTTGGTGTGTTTGCTGGTATATGTTCGGAGTCACCTAGTGCAG”, for which the binding signal was 14400 fluorescence intensity (a.u.).

For “ATAAACTATCGATTCACCGGTTGCTTAGTTGTTCTTCTAGCGGAGTCACCTAGTGCAG”, the binding signal is 9190 fluorescence intensity (a.u.).

Regarding “TCTGTAGTAGTCATCATCACCTAGGTGCCTACCCTTTTGACGGAGTCACCTAGTGCAG”, the binding signal is 9440 fluorescence intensity (a.u.).

With “TGTAACATAGGCCGATCGCCACTCCACCGCCGCCTCCAAACGGAGTCACCTAGTGCAG”, the binding signal is 8960 fluorescence intensity (a.u.).

For the sequence “CGTGCGCCGCTCAGCTGTATGACATGTGGGCCCGATGATCCGGAGTCACCTAGTGCAG”, the binding signal is 8720 fluorescence intensity (a.u.).

Regarding “TCTCCTCGGTCTCCGTTAGGTTCCCGTCAAAACAGGCAATCGGAGTCACCTAGTGCAG”, the binding signal is 8940 fluorescence intensity (a.u.).

Take “GAATACTTTATGCGTGACTTATCTTTTTAATTTTTTTCATCGGAGTCACCTAGTGCAG”: the binding signal is 8560 fluorescence intensity (a.u.).

Regarding “TTGTTGTAAAGCTTATGGGTCTACTTTCATATGGTTTTGGCGGAGTCACCTAGTGCAG”, the binding signal was 64100 fluorescence intensity (a.u.).

Turning to “CTTCGCTTCATTAATTCCTTCTTCGATTCATTCCTCACGCCGGAGTCACCTAGTGCAG”, the binding signal was 8050 fluorescence intensity (a.u.).

As to “CATTTTCATATTACTAACCTTTAACCAATGATGGAAGGCACGGAGTCACCTAGTGCAG”, the binding signal is 13200 fluorescence intensity (a.u.).

“ATTATTATATCATATACTCTAATAGACTTGCTCTCGTTTTCGGAGTCACCTAGTGCAG”: the binding signal is 10100 fluorescence intensity (a.u.).

As for “TTTCATGGTATGTGCCCCTCCGCTTATACACGTTGTAGTACGGAGTCACCTAGTGCAG”, the binding signal was 8510 fluorescence intensity (a.u.).

Turning to “AAGCATGCCTGACATTTTCATTGGTCTGTTTGGTTCAAGTCGGAGTCACCTAGTGCAG”, the binding signal is 8810 fluorescence intensity (a.u.).

For the origin of these results see PMC7819943, “Rice protein-binding microarrays: a tool to detect cis-acting elements near promoter regions in rice”.
